Results are given in words; binding and its absence hold for the method and conditions named. In cells and extracts the contact can be indirect.
Biological target: T1, SMARCAD1 (endogenous) (human (endogenous in HEK293T)) (UniProt Q9H4L7)
T1 sequence: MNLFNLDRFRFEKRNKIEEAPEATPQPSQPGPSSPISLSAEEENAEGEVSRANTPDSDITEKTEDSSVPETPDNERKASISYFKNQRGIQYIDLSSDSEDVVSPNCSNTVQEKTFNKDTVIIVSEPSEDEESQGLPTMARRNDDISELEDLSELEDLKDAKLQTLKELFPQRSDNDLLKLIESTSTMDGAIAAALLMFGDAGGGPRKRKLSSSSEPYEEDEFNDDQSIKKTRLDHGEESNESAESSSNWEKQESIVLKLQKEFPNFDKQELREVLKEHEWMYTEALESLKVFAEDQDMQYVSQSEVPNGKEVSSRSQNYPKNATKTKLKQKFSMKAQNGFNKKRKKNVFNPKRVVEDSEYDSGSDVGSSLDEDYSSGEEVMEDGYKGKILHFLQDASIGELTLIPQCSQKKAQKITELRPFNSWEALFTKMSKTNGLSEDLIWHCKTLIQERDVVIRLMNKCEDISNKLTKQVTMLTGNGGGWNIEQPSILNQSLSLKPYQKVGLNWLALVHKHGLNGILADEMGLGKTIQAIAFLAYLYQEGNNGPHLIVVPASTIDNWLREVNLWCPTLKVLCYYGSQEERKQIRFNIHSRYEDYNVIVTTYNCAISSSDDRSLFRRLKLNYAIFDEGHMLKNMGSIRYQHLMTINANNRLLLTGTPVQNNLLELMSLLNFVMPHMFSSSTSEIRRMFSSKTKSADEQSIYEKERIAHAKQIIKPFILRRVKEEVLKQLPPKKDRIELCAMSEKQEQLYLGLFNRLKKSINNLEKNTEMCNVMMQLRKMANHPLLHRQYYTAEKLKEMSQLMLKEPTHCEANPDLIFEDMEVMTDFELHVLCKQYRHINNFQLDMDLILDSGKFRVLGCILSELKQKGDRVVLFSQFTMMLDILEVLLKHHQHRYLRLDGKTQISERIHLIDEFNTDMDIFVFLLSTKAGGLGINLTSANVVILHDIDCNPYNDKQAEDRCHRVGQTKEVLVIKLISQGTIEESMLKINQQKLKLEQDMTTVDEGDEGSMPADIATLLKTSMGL
Assay: co-IP

Sequences of proteins named here, by UniProt entry; tags and fusion partners are left off.
UniProt Q9UQ84: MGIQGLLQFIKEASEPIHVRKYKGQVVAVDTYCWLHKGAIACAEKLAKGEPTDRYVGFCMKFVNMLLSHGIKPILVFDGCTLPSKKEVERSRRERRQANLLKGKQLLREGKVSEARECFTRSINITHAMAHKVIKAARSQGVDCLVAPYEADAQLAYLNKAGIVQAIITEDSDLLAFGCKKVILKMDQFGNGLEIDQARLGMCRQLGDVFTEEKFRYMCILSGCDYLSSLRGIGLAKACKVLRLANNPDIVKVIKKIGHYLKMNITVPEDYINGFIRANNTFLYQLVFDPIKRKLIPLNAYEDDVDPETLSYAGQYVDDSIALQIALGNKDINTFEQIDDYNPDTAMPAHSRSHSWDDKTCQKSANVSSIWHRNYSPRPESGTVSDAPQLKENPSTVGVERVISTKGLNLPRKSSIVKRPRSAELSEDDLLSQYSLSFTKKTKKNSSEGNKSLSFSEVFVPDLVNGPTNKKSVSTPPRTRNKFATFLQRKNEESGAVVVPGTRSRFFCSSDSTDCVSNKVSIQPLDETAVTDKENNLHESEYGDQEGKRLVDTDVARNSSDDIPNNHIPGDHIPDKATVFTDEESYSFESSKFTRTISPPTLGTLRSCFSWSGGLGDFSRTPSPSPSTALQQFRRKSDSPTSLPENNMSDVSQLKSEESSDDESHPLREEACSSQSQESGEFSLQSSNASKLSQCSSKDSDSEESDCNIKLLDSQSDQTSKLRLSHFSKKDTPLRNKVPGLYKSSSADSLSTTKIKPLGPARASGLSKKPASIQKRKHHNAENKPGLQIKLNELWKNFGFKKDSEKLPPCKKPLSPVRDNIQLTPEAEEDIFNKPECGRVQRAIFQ

Question: For “EXO1 (endogenous) (from UniProt Q9UQ84 1-846)”, which binding is on record?
Answer: Its binding is “no binding”.

— publication doi:10.1101/2021.04.23.441074 (bioRxiv, 2021)
